Measured values reported in patent publication US8304223B2, “Isoforms of pig liver esterase” (Enzymicals AG, priority 2007, dated 2012).
At least one compound was matched to its structure with a doubt left.

Assays:
Test in all cases: Influence of inhibitors, remaining activity by pNPA assay
Format in all cases: biochemical, pig
Conditions in all cases: inhibitor 0.01 mM, 25° C.
PLE 3 = test system: PLE 3
Protocol: (§1) Esterase activity was determined spectrophotometrically in sodium phosphate buffer (50 mM) by means of p-nitrophenyl acetate (10 mM, dissolved in dimethyl sulfoxide) as substrate. The amount of p-nitrophenol generated was determined at a wavelength of 410 nm (ε=15*10^3 M^−1 cm^−1) at RT and pH 7.5. 1 unit (U) is defined as the amount of enzyme capable of converting 1 μM p-nitrophenol per minute under analytical conditions (Krebsfänger, N., et. al., (1998) Enzyme Microb. Technol, 22, 641-646).
(§2) The inhibitability of the new PLE variants was determined by treating the crude extracts with any of three esterase inhibitors. […] Samples were taken at certain points in time and the remaining esterase activity was determined by the pNPA assay.

PLE 4 = test system: PLE 4
Protocol: as §1, §2

PLE 5 = test system: PLE 5
Protocol: as §1, §2

With `CNC(=O)Oc1ccc2c(c1)[C@]1(C)CCN(C)[C@@H]1N2C` [Physostigmine, physostigmine] the “Remaining activity in %” value (PLE 3; 1 min) was 83%, the “Remaining activity in %” value (PLE 3; 5 min) was 81% and the “Remaining activity in %” value (PLE 3; 30 min) was 72%. The “Remaining activity in %” value (PLE 4; 1 min) was 90%, the “Remaining activity in %” value (PLE 4; 5 min) was 82% and the “Remaining activity in %” value (PLE 4; 30 min) was 66%. For the same compound, the “Remaining activity in %” value (PLE 5; 1 min) was 94%, the “Remaining activity in %” value (PLE 5; 5 min) was 98% and the “Remaining activity in %” value (PLE 5; 30 min) was 75%.
